Reference: PubChem BioAssay AID1688 (National Center for Advancing Translational Sciences (NCATS), 2009)
Screen size: about 220,000 compounds; about 2,400 (1.1%) were called active. Inconclusive results, whose numbers are uncertain, are shown with a selection of clear calls. Calls come from the whole dose curve; as a rule, active = well fitted inhibition curve with a large enough effect; inconclusive = small, poorly fitted or top-dose-only effect, or effect the other way; inactive = no such curve, though single readings can be large or run the other way. Where the call is inconclusive, the potency comes from a doubtful curve fit.

Test: qHTS Multiplex Assay to Identify Dual Action Probes in a Cell Model of Huntington: Aggregate Formation (GFP); note: nearly all actives have a fitted effect of over 60% in size
Details: PC12 HttQ103-GFP aggregates, Acumen cytometry, 40 h; activity change, negative = inhibition: at 46.1 µM (top of the series) unless noted
In short: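 Ecdysone-promoter PC12 model expressing HTT exon 1 Q103 fused to GFP, induced by tebufenozide at 100 nM final. Compounds titrated; aggregates sized 1–25 µm scored on a 488 nm laser cytometer.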
% is set by controls: 0 for no effect and ±100 for the full control effect; potency is the fitted concentration of half-maximal effect.

Row | SMILES | Potency | activity change, negative = inhibition
1 | O=C(Cc1c(F)cccc1Cl)Nc1ncc([N+](=O)[O-])s1 | active: 10 µM | 
2 | Cc1ccc(S(=O)(=O)N2CCN(C(=S)NCCc3ccccc3)CC2)cc1 | inconclusive: 0.112 µM [inhibitor, full curve, poor fit] | 
3 | Cc1cc(=O)[nH]c(SCC(=O)Nc2cccc3ccccc23)c1C#N | active: 3.16 µM | 
4 | O=C(CSCc1ccc([N+](=O)[O-])cc1)NC1CC1 |  | inactive: 1.65%
5 | CC1=NNC(=O)C1C(c1ccccc1)C1C(=O)NN=C1C (centres undefined) |  | inactive: 5.13%
6 | O=c1n(Cc2ccc(Cl)cc2)c2sc3c(c2c2ncnn12)CCCC3 | inconclusive: 22.4 µM [inhibitor, single point] | 
7 | CNC(=O)/C(C#N)=C/c1c(N(Cc2ccccc2)Cc2ccccc2)nc2c(C)cccn2c1=O | inconclusive: 35.5 µM [inhibitor, single point] | 
8 | CC/C(=N\NC(=O)CSCc1ccc(Cl)cc1)c1ccc2c(c1)OCCO2 |  | inactive: 8.43%
9 | COc1ccc2[nH]c(=O)c(CN(Cc3cccs3)S(=O)(=O)c3cccc4nsnc34)cc2c1 | inconclusive: 7.08 µM [inhibitor, full curve, poor fit] | 
10 | CNC1CCc2cc(OC)c(OC)c(OC)c2-c2ccc(OC)c(=O)cc21 (centres undefined) |  | inactive: -26.9%
11 | Cc1cc(C)nc(/N=C(\N)Nc2ccc(S(=O)(=O)O)cc2)n1 | inconclusive: 398 µM [inhibitor, partial curve, poor fit] | 
12 | CC(=O)C1=C(C)N(c2ccccc2)C(=O)C1(NS(=O)(=O)c1ccc(N)cc1)C(F)(F)F (centres undefined) | inconclusive: 20 µM [activator, single point] | 
13 | O=C(c1cccc(Cl)c1)N1CCC(c2nc3ccccc3[nH]2)CC1 |  | inactive: 11.8%
14 | Cc1ccc(O)c(NC(=O)c2cc3nc4c(c(C(F)(F)F)n3n2)CCc2ccccc2-4)c1 | inconclusive: 35.5 µM [activator, single point] | 
15 | S=C(NNc1nc(Nc2ccccc2)nc(N2CCCCC2)n1)NC1CCCCC1 | inconclusive: 35.5 µM [inhibitor, single point] | 
16 | Cc1cccc(-n2ncc3c(NC4CCCCC4)ncnc32)c1 | inconclusive: 6.31 µM [inhibitor, partial curve] | 
17 | CCCn1c(=O)c(C(=O)NCc2ccc(OC)c(OC)c2)c(O)c2ccccc21 | inconclusive: 35.5 µM [inhibitor, single point] | 
18 | O=C(c1ccco1)N1N=C2CCCCCC2C1(O)C(F)(F)F (centres undefined) |  | inactive: -13.9% [at 9.22 µM]
19 | COc1cccc(C(=O)Nc2cccc(C(=O)NCC(C)C)c2)c1 | active: 3.16 µM | 
20 | Cc1cc(C)c(C#N)c(SCC(=O)c2cc(C)n(CCc3ccccc3)c2C)n1 | inconclusive: 3.98 µM [inhibitor, partial curve] | 
21 | O=C(c1cc2ccccc2oc1=O)N(Cc1ccco1)Cc1cccs1 |  | inactive: 10.7%
22 | O=C(c1ccc(Cl)cc1)c1oc2ccccc2c1CS(=O)c1ccccc1 (centres undefined) | inconclusive: 20 µM [inhibitor, single point] | 
23 | O=C(NCc1cccs1)c1cc(-c2ccccc2)nc2ccccc12 |  | inactive: -14.9%

Row | SMILES | Potency | activity change, negative = inhibition
24 | c1csc(CN2CCN(Cc3cccs3)C2c2cccs2)c1 | inconclusive: 3.55 µM [activator, partial curve] | 
25 | CCN(CC)P(=O)(Nc1ccc(SC(F)F)cc1)c1ccc(N(C)C)cc1NC(=O)c1ccco1 (centres undefined) | inconclusive: 15.8 µM [inhibitor, single point] | 
26 | Cc1ccc(/C=N/NS(=O)(=O)c2ccccc2)o1 | inconclusive: 11.2 µM [activator, partial curve] | 
27 | CCCCCCN(C(=O)CCCCCN1C(=O)NC(c2ccc(C(C)(C)C)cc2)C(C(=O)OCc2ccccc2)=C1C)C(C(=O)NCCCC)c1ccc(OCC(=O)OC)c(C(=O)OC)c1 (centres undefined) | inconclusive: 3.16 µM [inhibitor, partial curve] | 
28 | CCC(=O)Nc1ccc(-c2cc(-c3ccccc3)nc(-c3ccc(NC(=O)CC)cc3)n2)cc1 |  | inactive: -2.85%
29 | Cn1c(N)c(C(=O)COC(=O)CSc2cccc3cccc(Cl)c23)c(=O)n(C)c1=O | inconclusive: 1 µM [activator, full curve, poor fit] | 
30 | COc1cccc(C(C(=O)NCC2CCCO2)N(CC2CCCO2)C(=O)CN2C(=O)c3ccccc3S2(=O)=O)c1 (centres undefined) |  | inactive: -0.276% [at 9.22 µM]
31 | O=C(/C=C/NNC(=O)c1cccc(Br)c1)c1cccc(Br)c1 | inconclusive: 35.5 µM [inhibitor, single point] | 
32 | CCN(C(=O)CSc1ncccc1C(=O)OC(C)C)c1cccc(C)c1 | inconclusive: 22.4 µM [inhibitor, single point] | 
33 | Cc1cc(NC(=O)CCCS(=O)(=O)c2nc(-c3cccs3)cc(C(F)(F)F)n2)no1 | active: 10 µM | 
34 | Nc1ccccc1N=Cc1ccc(-c2cccc(Cl)c2)o1 | inconclusive: 22.4 µM [inhibitor, single point] | 
35 | CC1=CC(C)(C)Nc2ccc(OC(=O)C(Cc3ccccc3)N3C(=O)C4CCCCC4C3=O)cc21 (centres undefined) | inconclusive: 2.51 µM [activator, partial curve] | 
36 | N#Cc1ccccc1OCC(O)CS(=O)(=O)c1ccccc1 (centres undefined) |  | inactive: -13.8% [at 9.22 µM]
37 | NC(=O)CSc1nc2sc3c(c2c2ncnn12)CCCC3 | inconclusive: 5.62 µM [activator, single point] | 
38 | COc1ccc(OC)c(C2/C(=C(/O)c3ccccc3)C(=O)C(=O)N2Cc2ccco2)c1 (centres undefined) | inconclusive: 3.98 µM [activator, single point] | 
39 | O=C(Nc1cccnc1)c1ccccc1NS(=O)(=O)c1ccc(F)cc1 | inconclusive: 22.4 µM [inhibitor, single point] | 
40 | COc1ccccc1CNc1ncnc2c1nnn2Cc1ccccc1 | inconclusive: 12.6 µM [inhibitor, single point] | 
41 | C/C(=N\NC(=O)c1ccoc1C)c1ccccc1 |  | inactive: 5.69% [at 9.22 µM]
42 | Cc1nc(NCc2ccco2)c2c3c(sc2n1)CCC3 | inconclusive: 3.55 µM [activator, partial curve] | 
43 | COc1cc2[nH]c3c(N4CCN(c5ccccn5)CC4)ncnc3c2cc1OC | active: 20 µM | 
44 | CSc1nc2ccccc2n1Cc1c(Cl)cccc1Cl | active: 11.2 µM | 
45 | O=C(Nc1ccc(Cl)c(Cl)c1)Nc1cc(S(=O)(=O)N2CCOCC2)ccc1N1CCCC1 | inconclusive: 25.1 µM [inhibitor, single point] | 
46 | CC(C)Cc1nc(N2CCN(C(=O)c3ccco3)CC2)c(C#N)c2c1CCC2 | inconclusive: 35.5 µM [inhibitor, single point] | 

Row | SMILES | Potency | activity change, negative = inhibition
47 | CCOC(=O)c1c(NC(=O)c2ccco2)sc2c1CCCCC2 |  | inactive: -24.2%
48 | COc1c(C)cc(C(=O)C2CCCN(C(=O)/C=C/c3ccccn3)C2)cc1C (centres undefined) |  | inactive: -3.86%
49 | CC(C)(C)c1ccc(-c2nnc(N)o2)cc1 |  | inactive: 2.41% [at 9.22 µM]
50 | C/C=C/Cn1c(SCc2ccccc2)nc2c1c(=O)[nH]c(=O)n2C |  | inactive: 6.7%
51 | O=C(/C(=C\c1ccccc1)c1nc2ccccc2[nH]1)c1ccc(Cl)cc1 | inconclusive: 35.5 µM [inhibitor, single point] | 
52 | CC(C)C(=O)NC(=S)N(Cc1ccccc1)Cc1ccccc1 |  | inactive: 0.391%
53 | O=C(Nc1ccc(N2CCCCC2)cc1)c1ccc2ccccc2n1 |  | inactive: -30%
54 | O=C(COC(=O)c1cn(-c2ccccc2)nc1-c1cccnc1)NC1CC1 | inconclusive: 11.2 µM [activator, partial curve] | 
55 | COC(=O)c1c(C(C)=O)cnc2ccc(Br)cc12 | inconclusive: 11.2 µM [inhibitor, partial curve] | 
56 | NS(=O)(=O)c1ccc(NNC(=O)c2sccc2Cl)cc1 |  | inactive: 4.37% [at 9.22 µM]
57 | O=C(NC1CCc2ccccc21)C12CN(Cc3ccccc3)CC1C(c1cccc([N+](=O)[O-])c1)=NO2 (centres undefined) | inconclusive: 3.55 µM [activator, partial curve] | 
58 | Cc1cc(Cl)ccc1OC(C)C(=O)Nc1ccccc1N1CCOCC1 (centres undefined) | inconclusive: 11.2 µM [inhibitor, partial curve] | 
59 | Fc1ccc2[nH]c3c(N4CCSCC4)ncnc3c2c1 | inconclusive: 10 µM [inhibitor, partial curve] | 
60 | O=C(Nc1cccc([N+](=O)[O-])c1)c1cc2ccccc2cc1O | inconclusive: 5.62 µM [inhibitor, single point] | 
61 | O=C1N/C(=N\N=C\c2cccnc2)SC1Cc1ccc(SC(F)F)cc1 (centres undefined) | active: 5.62 µM | 
62 | CCCCCCN=C(C)c1ccccc1O |  | inactive: -11% [at 9.22 µM]
63 | Cc1cc(C)cc(N(C(=O)Cn2nnc3ccccc32)C(C(=O)NCc2ccco2)c2ccncc2)c1 (centres undefined) | inconclusive: 1 µM [activator, full curve, poor fit] | 
64 | O=c1c2ccccc2nc2n1C(CSCc1ccccc1)CS2 (centres undefined) | active: 11.2 µM | 
65 | Cc1cc(NC(=O)CC(F)(F)F)n(-c2ccccc2)n1 | inconclusive: 14.1 µM [activator, partial curve] | 
66 | Cc1ccc(CN2CCN(Cc3cn[nH]c3-c3cccc(F)c3)CC2CCO)o1 (centres undefined) | inconclusive: 17.8 µM [activator, single point] | 
67 | O=C1c2oc3ccc(Cl)cc3c(=O)c2C(c2ccccn2)N1CCCN1CCOCC1 (centres undefined) |  | inactive: -14.3%
68 | CC(C)c1ccc(/C=C2\SC(N3CCCC3)=NC2=O)cc1 | inconclusive: 35.5 µM [activator, single point] | 
69 | CC(C)Cn1c(N)c(C(=O)COC(=O)c2ccc3c(c2)OCCO3)c(=O)n(C)c1=O | inconclusive: 14.1 µM [inhibitor, partial curve] | 

Record cards, as listed above:
O=c1c2ccccc2nc2n1C(CSCc1ccccc1)CS2 (centres undefined) in the list: Potency: active: 11.2 µM
CC(C)c1ccc(/C=C2\SC(N3CCCC3)=NC2=O)cc1 in the list: Potency: inconclusive: 35.5 µM [activator, single point]
CC(C)C(=O)NC(=S)N(Cc1ccccc1)Cc1ccccc1 in the list: activity change, negative = inhibition: inactive: 0.391%
Cc1cc(NC(=O)CC(F)(F)F)n(-c2ccccc2)n1 in the list: Potency: inconclusive: 14.1 µM [activator, partial curve]
